The values below come from the supplement of paper PMC11060735.

Several values for one entry are separate records, joined by “and”; a condition that tells them apart may be missing. Equal values may be shown once. Where a name gives a salt, the structure may show the parent alone. ± gives the standard deviation of the averaged measurements. Whole data set: some 1,800 compounds, median “GFP- (p16Ink4a-) cell count relative to negative-control wells” near 0.99, cut for the lowest 2% near 0.5. Some of the results follow.

The experiment concerns mouse p16Ink4a+/- lung fibroblasts (INKBRITE, bleomycin-injured). In words: GFP- (p16Ink4a-) cell count relative to negative-control wells (fold of vehicle); higher = more p16Ink4a- cells surviving. Conditions: 1 µM; 3 days.
`OC[C@H]1O[C@@H](Oc2cc(O)cc(/C=C/c3ccc(O)cc3)c2)[C@H](O)[C@@H](O)[C@@H]1O` [Piceid]: the GFP- came out at 1.05.

With `CCCNC(=O)NS(=O)(=O)c1ccc(Cl)cc1` [Chlorpropamide], the GFP- is 0.949.

On to `O=C1NCC2(CCN(CCc3ccccc3)CC2)O1` [Fenspiride], for which the GFP- was determined as 1.05.

The compound `CNCCCC12CCC(c3ccccc31)c1ccccc12` [Maprotiline] returned a GFP- of 0.984.

On to `CCCOc1ccc2[nH]c(NC(=O)OC)nc2c1` [Oxybendazole, Oxibendazole], for which the GFP- is 0.885.

Regarding `CN(C)c1ccc(-c2nc3c(N4CCN(CC(=O)Nc5nccs5)CC4)c(Cl)cnc3[nH]2)cc1`, the GFP- was 0.866 ± 0.052.

For `O=C(O)Cc1cc(I)c(Oc2ccc(O)c(I)c2)c(I)c1` [Tiratricol], the GFP- stood at 0.974.

Compound `C[C@@H]1O[C@@H](Oc2c(-c3cc(O)c(O)c(O)c3)oc3cc(O)cc(O)c3c2=O)[C@H](O)[C@H](O)[C@H]1O` [Myricitrin] had a GFP- of 0.967.

As for `CCCCCCCCOc1ccccc1C(=O)Nc1ccc(C(=O)OCC[N+](C)(CC)CC)cc1` [Otilonium Bromide], the GFP- amounted to 0.987.

As to `C[C@H]1[C@H](O)O[C@@H]2O[C@@]3(C)CC[C@H]4[C@H](C)CC[C@@H]1[C@@]24OO3` [Dihydroartemisinin (DHA)], the GFP- amounted to 0.83.

In turn, `O=C(c1cc(Cc2nnc(O)c3ccccc23)ccc1F)N1CCN(C(=O)C2CC2)CC1` [Olaparib] registered a GFP- of 0.867 ± 0.069.

Compound `COC(=O)C1=CO[C@@H](O)[C@@H]2C(CO)=CC[C@H]12` [Genipin] registered a GFP- of 1.09.

`CCC(C)n1ncn(-c2ccc(N3CCN(c4ccc(OC[C@H]5CO[C@](Cn6cncn6)(c6ccc(Cl)cc6Cl)O5)cc4)CC3)cc2)c1=O` (stereo not given in full) [Itraconazole]: the GFP- came to 1.14.

As to `CCOC(=O)[C@H](CCc1ccccc1)N[C@@H](C)C(=O)N1Cc2ccccc2C[C@H]1C(=O)O` [Quinapril], the GFP- is 1.19.

`Nc1nc(O)c2[nH]nnc2n1` [8-azaguanine] displayed a GFP- of 0.997.

For the compound `Cc1cncc(CN2CCC(=C3c4ccc(Cl)cc4CCc4cccnc43)CC2)c1` [Rupatadine], the GFP- was 0.67.

As for `O=C1c2c(O)ccc(O)c2C(=O)c2c(NCCNCCO)ccc(NCCNCCO)c21` [Mitoxantrone], the GFP- is 0.503.

Compound `NC(=O)c1ccc(I)c([N+](=O)[O-])c1` [Iniparib] returned a GFP- of 1.03 ± 0.12.

The compound `CCOc1nc2cccc(C(=O)O)c2n1Cc1ccc(-c2ccccc2-c2noc(O)n2)cc1` [Azilsartan] registered a GFP- of 0.936.

Turning to `N=C(N)/N=C(\N)N1CCOCC1` [Moroxydine Hydrochloride], the GFP- stood at 1.09.

In turn, `O=c1cc(-c2ccc(O)cc2)oc2cc(O)cc(O)c12` [Apigenin] registered a GFP- of 0.98.

In the case of `Cc1onc(-c2ccccc2Cl)c1C(=O)N[C@@H]1C(=O)N2[C@@H]1SC(C)(C)[C@@H]2C(=O)O` [Cloxacillin], the GFP- was found to be 1.03.

`Cn1cnc(-c2cc3nccc(Oc4ccc(NC(=S)NC(=O)Cc5ccccc5)cc4F)c3s2)c1` had a GFP- of 0.696.

Compound `CC(C(O)c1ccc(O)cc1)N1CCC(Cc2ccccc2)CC1` (stereo not given) [Ifenprodil] returned a GFP- of 0.994.

For the compound `CN1CC[C@@H](c2c(O)cc(O)c3c(=O)cc(-c4ccccc4Cl)oc23)[C@@H]1CO`, the GFP- turned out to be 0.807.

Compound `CC(C)c1cnn2c(NCc3ccccc3)cc(NCCCCCCN)nc12` registered a GFP- of 0.834.

The compound `O=C1c2c(O)cc(O)cc2O[C@H](c2cc(O)c(O)c(O)c2)[C@H]1O` [Dihydromyricetin] showed a GFP- of 1.01.

`CS(=O)(=O)Nc1ccc([N+](=O)[O-])cc1Oc1ccccc1` [Nimesulide] registered a GFP- of 1.05.

Turning to `Cc1ccc(-c2nn(C(C)(C)C)c3ncnc(N)c23)cc1` [1-Ter-Butyl-3-P-Tolyl-1h-Pyrazolo[3,4-D]Pyrimidin-4-Ylamine], the GFP- amounted to 0.803.

`Cc1ccc(S(=O)(=O)/C=C/C#N)cc1`: the GFP- is 0.854.

As to `CCCCOc1cc(C(=O)OCCN(CC)CC)ccc1N` [Oxybuprocaine], the GFP- was found to be 1.07.

For the compound `O=C(O)c1ccccc1O` [Salicylic Acid], the GFP- is 0.955.

`CC(C)(F)C[C@H](N[C@@H](c1ccc(-c2ccc(S(C)(=O)=O)cc2)cc1)C(F)(F)F)C(=O)NC1(C#N)CC1` [Odanacatib] yielded a GFP- of 1.03.

On to `COC(=O)[C@H](c1ccccc1Cl)N1CCc2sccc2C1` [Clopidogrel], for which the GFP- was determined as 1.11.

Compound `CN1c2ccccc2C(=O)N2CCc3c([nH]c4ccccc34)C21` (stereo not given) [Evodiamine] yielded a GFP- of 0.832.

As to `Cn1nnc2c(C(N)=O)ncn2c1=O` [Temozolomide], the GFP- is 0.853.

Take `C[C@H]1c2cccc(O)c2C(=O)C2=C(O)[C@]3(O)C(O)=C(C(N)=O)C(=O)[C@@H](N(C)C)[C@@H]3[C@@H](O)[C@@H]21` [Doxycycline]: the GFP- was 1.06 and 0.893.

Compound `Nc1ccc(C(=O)O)c(O)c1` [Aminosalicylic Acid] showed a GFP- of 0.978.

As to `CC(=O)Oc1cc2c(s1)CCN(C(C(=O)C1CC1)c1ccccc1F)C2` (stereo not given) [Prasugrel], the GFP- was 0.995.

In turn, `CN(C)CCCN1c2ccccc2Sc2ccc(Cl)cc21` [Chlorpromazine Hydrochloride, Chlorpromazine] displayed a GFP- of 0.892.

`CN(C)CCN(Cc1ccccc1)c1ccccn1` [Tripelennamine] gave a GFP- of 1.09.

On to `COc1c2ccoc2cc2oc(=O)ccc12` [Bergapten], for which the GFP- is 1.08.

`Cc1ccc(S(=O)(=O)OCC(=O)Nc2ccc(C(=O)O)c(O)c2)cc1` displayed a GFP- of 0.999.

For `CNC(=O)c1c(F)cccc1Nc1nc(Nc2cc3c(cc2OC)CCN3C(=O)CN(C)C)nc2[nH]ccc12`, the GFP- amounted to 0.935.

The compound `O=C(O)Cn1nnc(-c2cc(N3CCC(Oc4cc(F)ccc4Br)CC3)no2)n1` gave a GFP- of 0.978.

In the case of `OCC(CO)N[C@H]1C[C@](O)(CO)[C@@H](O)[C@H](O)[C@H]1O` [Voglibose], the GFP- came to 0.91.

Turning to `O=C1NC(=O)/C(=C/c2ccc(-c3ccc(F)cc3O)o2)S1`, the GFP- came to 0.787.

`CCc1cc2c(cc1CC)CC(NC[C@H](O)c1ccc(O)c3nc(O)ccc13)C2` [Indacaterol]: the GFP- turned out to be 1.11.

Compound `C[C@H](Cc1cc2c(c(C(N)=O)c1)N(CCCO)CC2)NCCOc1ccccc1OCC(F)(F)F` [Silodosin] yielded a GFP- of 0.647.

For the compound `CCOC(=O)c1ccc(NC2CCCCC2)c(N)c1` [Ferrostatin-1 (Fer-1)], the GFP- was determined as 0.811.

In turn, `Oc1ccnc(O)n1` [Uracil] yielded a GFP- of 1.02.

`Cc1ccc(C(=O)c2cc(O)c(O)c([N+](=O)[O-])c2)cc1` [Tolcapone] gave a GFP- of 0.983.

For the compound `C/C1=C2/N[C@H]([C@H](CC(N)=O)[C@@]2(C)CCC(=O)NC[C@@H](C)OP(=O)(O)O[C@H]2[C@@H](O)[C@@H](n3cnc4cc(C)c(C)cc43)O[C@@H]2CO)[C@]2(C)N=C(/C(C)=C3N=C(/C=C4N=C1[C@@H](CCC(N)=O)C\4(C)C)[C@@H](CCC(N)=O)[C@]\3(C)CC(N)=O)[C@@H](CCC(N)=O)[C@]2(C)CC(N)=O` [Vitamin B12], the GFP- turned out to be 0.847.

With `CC(=O)Oc1cc(C(F)(F)F)ccc1C(=O)O` [Triflusal], the GFP- was determined as 1.07.

Take `COC(=O)C1=C(C#N)N=C(C)/C(=C(\O)OC(C)C)C1c1cccc([N+](=O)[O-])c1` (stereo not given) [Nilvadipine]: the GFP- stood at 0.683.

With `CN(C)CCc1c[nH]c2ccc(CS(=O)(=O)N3CCCC3)cc12` [Almotriptan], the GFP- came to 1.27.

Compound `N#CSc1cc(SC#N)c(N)nc1N` registered a GFP- of 1.02.

Compound `COc1cc(O)c2c(c1)C(=O)c1cc(C)cc(O)c1C2=O` [Physcion] returned a GFP- of 0.956.

`C[C@H](C(=O)O)c1ccc(-c2ccccc2)c(F)c1` [Flurbiprofen]: the GFP- came out at 0.969.

Turning to `CC#C[C@]1(O)CC[C@H]2[C@@H]3CCC4=CC(=O)CCC4=C3[C@@H](c3ccc(N(C)C)cc3)C[C@@]21C` [Mifepristone], the GFP- turned out to be 0.963.

As to `CN1CCC(CNc2ccc3ncc(-c4cccc(OC(F)(F)F)c4)n3n2)CC1`, the GFP- was found to be 1 ± 0.028.

With `CCCCCCOC(=O)/N=C(\N)c1ccc(NCc2nc3cc(C(=O)N(CCC(=O)OCC)c4ccccn4)ccc3n2C)cc1` [Dabigatran etexilate], the GFP- turned out to be 1.02.

Take `O=C(O)[C@H]1O[C@H](Oc2cc3oc(-c4ccccc4)cc(=O)c3c(O)c2O)[C@H](O)[C@@H](O)[C@@H]1O` [Baicalin]: the GFP- is 0.798.

The compound `CC(C)(C)NS(=O)(=O)c1cncc(-c2cc(F)c3nc(N)nn3c2)c1` had a GFP- of 0.961.

With `O=C1C(c2c(O)[nH]c3ccccc23)=Nc2ccccc21` [Indirubin], the GFP- was determined as 1.08.

As to `C[C@H](NC(=O)Cc1cc(F)cc(F)c1)C(=O)N[C@@H]1C(=O)N(C)c2ccccc2-c2ccccc21`, the GFP- was determined as 0.862.

`Cc1cnc(Nc2ccc(N3CCN(C)CC3)cc2)nc1Nc1cccc(S(=O)(=O)NC(C)(C)C)c1` gave a GFP- of 0.779 ± 0.037.

Take `Cc1c(C(=O)Nc2ccc(N3C[C@@H](C)O[C@@H](C)C3)nc2)cccc1-c1ccc(OC(F)(F)F)cc1` [Sonidegib]: the GFP- is 1.01.

`Nc1cc(C(Cl)=C(Cl)Cl)c(S(N)(=O)=O)cc1S(N)(=O)=O` [Clorsulon] yielded a GFP- of 1.08.

`C[C@H](NC(=O)Cc1cc(F)cc(F)c1)C(=O)N[C@H](C(=O)OC(C)(C)C)c1ccccc1` registered a GFP- of 0.859.

`C[C@H]1C[C@H]2[C@@H]3CCC4=CC(=O)C=C[C@]4(C)[C@H]3C(=O)C[C@]2(C)[C@@]1(O)C(=O)CO` [Meprednisone] gave a GFP- of 0.906.

In turn, `CN(C)c1nc(N(C)C)nc(N(C)C)n1` [Altretamine] returned a GFP- of 1.1.

`C=CC(=O)Nc1ccc2ncnc(Nc3ccc(OCc4cccc(F)c4)c(Cl)c3)c2c1` returned a GFP- of 0.979.

Take `Nc1cccc2c1C(=O)N(C1CCC(=O)NC1=O)C2=O` (stereo not given) [Pomalidomide]: the GFP- worked out at 0.988.

Compound `Nc1nc(NCCNc2ncc(-n3ccnc3)c(-c3ccc(Cl)cc3Cl)n2)ccc1[N+](=O)[O-]` showed a GFP- of 0.874.

On to `COc1ccc(-c2ccc3ncc4c(c3c2)n(-c2ccc(N3CCNCC3)c(C(F)(F)F)c2)c(=O)n4C)cn1`, for which the GFP- worked out at 0.4.

In the case of `NNC(=O)c1ccncc1` [Isoniazid], the GFP- was determined as 1.07.

In turn, `c1ccc2[nH]c(-c3cscn3)nc2c1` [Thiabendazole] yielded a GFP- of 0.925.

In the case of `Cn1c(=O)c2c(ncn2CC2OCCO2)n(C)c1=O` [Doxofylline], the GFP- turned out to be 1.14.

As to `O=C1[O][Pt]2(<-[NH2][C@@H]3CCCC[C@H]3[NH2]->2)[O]C1=O` [Oxaliplatin], the GFP- was found to be 0.641.
